From US20220296610A1, “COMPOSITIONS AND METHODS FOR TREATMENT OF INFECTION AND NOVEL COSMECEUTICAL PREPARATIONS” (priority 2017, published 2022)
Converted amounts (≈) assume the structure as drawn. “Also recorded” adds a separate entry of the source. At least one structure is not confirmed: it was looked up by name or label, or the drawing left a doubt.

Experiments:
pig skin = conditions: topical administration for two weeks
[1] = test system: human hyperkeratotic lesion with an inflammatory component; assay: Topical treatment of human hyperkeratotic lesion; format: in vivo
[2] = Solubility in ethanol, DMSO, ethanol-Tween 80 and cyclodextrins; format: physicochemical
moderate acne = assay: Treatment of acne (Example 9); format: in vivo; conditions: cleansing solution comprising NVX-207 twice a day for one month
[3] = test system: canine basal cell carcinoma; format: in vivo, dog
Description: Differential diagnoses included virus induced lesions such as warts which are caused by papillomaviruses, and are thus an example of anti-microbial/anti-viral activity.

rosacea = assay: Treatment of rosacea (Example 13); format: in vivo; conditions: capsules comprising NVX-207 twice a day for two weeks
[4] = test system: bacteria obtained from the skin surface of an individual; assay: Filter disk growth inhibition on LB-agar plates; format: cell-based
Method: 10 mm filter disks (numbered 1 to 4) were soaked in 10 μl of 10.0, 5.0, 2.5, and 1.25 mg/ml of NVX-207, respectively, and placed on LB-Agar plates on which a skin bacterial isolate had been plated. 15 ml of LB/Agar was used for pouring one plate. Control disks were soaked in 10 μl of the corresponding solvent and paced in the center of the plates. LB-Agar plates were then cultivated over night at 30° C. and bacterial growth was monitored by comparing growth inhibition zones around the soaked disks. […]
Antibacterial effects of NVX-207 were tested against bacteria obtained from the skin surface of an individual. NVX-207 was used either as a cyclodextrin formulation (NVX-207 (at 10 mg/ml final concentration) was formulated in 2-hydroxypropyl-gamma-cyclodextrin (at 150 mg/ml final concentration) in water) (FIG. 6A), or a Tween 80/Ethanol formulation (described in Example 2) (FIG. 6B). Filter disks 1 to 4 were soaked in 10 μl of 10.0, 5.0, 2.5, and 1.25 mg/ml of NVX-207, respectively, and placed on LB-agar plates (total volume of 15 ml LB-agar per plate) on which a skin bacterial isolate had been plated at low density. Control disks placed in the center of the plates were soaked in 10 μl of the corresponding solvent. LB-Agar plates were then cultivated over night at 30° C. and bacterial growth was examined after 18 hours. […]

canine cancer patients = assay: Inflammation and infection after repeated intralesional injections in dogs; format: in vivo, dog; conditions: repeated intralesional and peritumoral injections over several months
Description: FIGS. 3A-D show the effects of intratumoral treatment of NVX-207 in various spontaneously arising canine malignancies (before and after pictures). […] FIGS. 3B-D show NVX-207 treatment effects in a canine mammary carcinoma and two separate cases of soft tissue sarcoma, respectively. […] Microbial infections (with bacteria, fungi, viruses or protozoa) usually almost invariably accompany multiple injections under similar non-sterile conditions, because the coat of the animal cannot be efficiently sterilized. This in turn leads to unwanted treatment interruptions.
FIGS. 3B-D show NVX-207 treatment effects in a canine mammary carcinoma and two separate cases of soft tissue sarcoma, respectively. […] Microbial infections (with bacteria, fungi, viruses or protozoa) usually almost invariably accompany multiple injections under similar non-sterile conditions, because the coat of the animal cannot be efficiently sterilized. This in turn leads to unwanted treatment interruptions.
As noted above, strong evidence for an antibacterial activity of NVX-207 also comes from the canine cancer treatments. Dogs were treated over several months by repeated intralesional and peritumoral injections of NVX-207. […] This is highly unusual, since intralesional treatments under the same conditions are usually associated with a high incidence of serious local soft tissue infections leading to treatment interruptions. […]

conjunctivitis = assay: Treatment of conjunctivitis (Example 10); format: in vivo; conditions: eye drops comprising NVX-207 twice a day for 10 days
human keratinocytes = conditions: Galgon et al., Exp Dermatol. 14:736-43, 2005; cited from earlier work

Row | SMILES | overall tolerability (pig skin) | appearance of surrounding skin ([1]; 1% topical solution) | improvement of lesion after one day ([1]; 1% topical solution) | lesion status after 14 days ([1]; 1% topical solution, seven treatments within 14 days) | second lesion status ([1]; same formulation twice a day for 2 days) | appearance of ethanol-Tween 80 stock solution ([2]; 100 mg/ml after adding an equal volume of Tween 80) | appearance of solution in ethanol ([2]; 200 mg dissolved in 1 ml ethanol) | can be formulated in cyclodextrins and re-dissolved in water as an active compound [2] | appearance of stock solution diluted with water ([2]; diluted 1:1 (50 mg/ml), 1:5 (20 mg/ml), 1:10 (10 mg/ml) with water) | improvement in number and severity of blemishes compared to vehicle (moderate acne) | bleeding of lesion ([3]; 1% topical solution, after 3 weeks) | lesion status ([3]; 1% topical solution, week 7) | re-growth ([3]; twenty weeks after the end of treatment) | improvement compared to vehicle (rosacea) | antibacterial effect ([4]; Tween 80/ethanol formulation, disks with 10.0, 5.0, 2.5, 1.25 mg/ml) | growth inhibition around filter disk ([4]; cyclodextrin formulation, disk soaked in 10 μl of 10 mg/ml) | bacterial, viral, fungal or protozoal infection (canine cancer patients) | improvement compared to vehicle (conjunctivitis) | IC50 in human keratinocytes (human keratinocytes) [µg/mL]
1 | C=C(C)[C@@H]1CC[C@]2(C(=O)OCC(N)(CO)CO)CC[C@]3(C)[C@H](CC[C@@H]4[C@@]5(C)CC[C@H](OC(C)=O)C(C)(C)[C@@H]5CC[C@]43C)[C@@H]12 [NVX-207, 3-O-acetylbetulinic acid-2-amino-3-hydroxy-2-hydroxymethylpropyl ester] | well tolerated in all animals tested | skin microcirculation appears improved, teleangiectasias appear less pronounced and redness appears reduced | Significant improvement | disappeared; also recorded: not palpable | completely disappeared | clear and yellow | clear | can by formulated in cycodextrins, and re-dissolved in water as an active compound | remained clear | significant, and more rapid, improvement | bleeding stopped | almost disappeared | no evidence of re-growth | significant, and more rapid, improvement | observed at all tested concentrations | pronounced antibacterial effect; also recorded: strong growth inhibitory effect | In no case was any bacterial, viral, fungal or protozoal infection observed | significant, and more rapid, improvement | 
2 | C=C(C)[C@@H]1CC[C@]2(C(=O)O)CC[C@]3(C)[C@H](CC[C@@H]4[C@@]5(C)CC[C@H](O)C(C)(C)[C@@H]5CC[C@]43C)[C@@H]12 [betulinic acid, reference compound] |  |  |  |  |  |  |  | not |  |  |  |  |  |  |  |  |  |  | ~5.0 (≈ 10.9 µM)
